Source: the supplement of paper PMC7411640
Some of the results follow. Single values are uncertain here, since repeats match poorly.

Test system: MDA-MB-468
Assay: phospho-S6 immunofluorescence (DAPI-normalised), per-plate z-score; higher = higher phospho-S6 signal (less pathway suppression)
Details: 24 h
Description: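 GPCR-targeted compound library (MedChemExpress HY-L006) tested on MDA-MB-468 PTEN-null TNBC cells in 384-well plates at 0.1, 1 or 10 uM, combined with vehicle, GDC0941 450 nM or lapatinib 1 uM, for 24 h. Phospho-S6 (S240/244) immunofluorescence normalised to DAPI and expressed as a per-plate z-score; values are the mean of biological triplicates.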

[1] = compound 0.1 µM, co-treatment: GDC0941 450 nM
[2] = compound 0.1 µM, co-treatment: lapatinib 1 uM
[3] = compound 0.1 µM, co-treatment: vehicle
[4] = compound 1 µM, co-treatment: GDC0941 450 nM
[5] = compound 1 µM, co-treatment: lapatinib 1 uM
[6] = compound 1 µM, co-treatment: vehicle
[7] = compound 10 µM, co-treatment: GDC0941 450 nM
[8] = compound 10 µM, co-treatment: lapatinib 1 uM
[9] = compound 10 µM, co-treatment: vehicle

Row | Structure (SMILES) | phospho-S6 immunofluorescence (z-score) [1] | phospho-S6 immunofluorescence (z-score) [2] | phospho-S6 immunofluorescence (z-score) [3] | phospho-S6 immunofluorescence (z-score) [4] | phospho-S6 immunofluorescence (z-score) [5] | phospho-S6 immunofluorescence (z-score) [6] | phospho-S6 immunofluorescence (z-score) [7] | phospho-S6 immunofluorescence (z-score) [8] | phospho-S6 immunofluorescence (z-score) [9]
1 | COc1cc(C(=O)NS(=O)(=O)c2ccccc2C)ccc1Cc1cn(C)c2ccc(NC(=O)OC3CCCC3)cc12 [Zafirlukast] | 0.63 | 0.89 | 1.29 | 0.44 | 1.1 | 1.31 | -2.01 | -0.41 | 0.19
2 | CCOc1ccccc1OCCN[C@H](C)Cc1ccc(OC)c(S(N)(=O)=O)c1 [Tamsulosin] | -0.07 | -0.33 | -0.67 | -0.28 | -0.26 | -1.28 | -1.32 | 0.1 | -0.53
3 | Nc1nc(CC(=O)Nc2ccc(CCNC[C@H](O)c3ccccc3)cc2)cs1 [Mirabegron] | 0.31 | 0.89 | 0.64 | 1.4 | 0.03 | 1.07 | 0.91 | 1.75 | 0.56
4 | CCCCC[C@H](O)/C=C/[C@H]1[C@H](O)CC(=O)[C@@H]1CCCCCCC(=O)O [Prostaglandin E1] | -0.47 | -0.46 | -0.23 | -0.45 | 0.35 | -0.29 | -0.04 | 1.48 | -0.27
